From publication PMC12603192
Residue numbers refer to the chain shown, from its start. Results are given in words; binding and its absence hold for the method and conditions named. Binding seen in cells or lysates may run through a third protein. Some binding calls cover weakened binding; strength is not graded here. For part of these data: Tags and fused reporters may be left off the sequences shown.

Amino acid sequences for entries named in this document (tags omitted).
UniProt Q15796: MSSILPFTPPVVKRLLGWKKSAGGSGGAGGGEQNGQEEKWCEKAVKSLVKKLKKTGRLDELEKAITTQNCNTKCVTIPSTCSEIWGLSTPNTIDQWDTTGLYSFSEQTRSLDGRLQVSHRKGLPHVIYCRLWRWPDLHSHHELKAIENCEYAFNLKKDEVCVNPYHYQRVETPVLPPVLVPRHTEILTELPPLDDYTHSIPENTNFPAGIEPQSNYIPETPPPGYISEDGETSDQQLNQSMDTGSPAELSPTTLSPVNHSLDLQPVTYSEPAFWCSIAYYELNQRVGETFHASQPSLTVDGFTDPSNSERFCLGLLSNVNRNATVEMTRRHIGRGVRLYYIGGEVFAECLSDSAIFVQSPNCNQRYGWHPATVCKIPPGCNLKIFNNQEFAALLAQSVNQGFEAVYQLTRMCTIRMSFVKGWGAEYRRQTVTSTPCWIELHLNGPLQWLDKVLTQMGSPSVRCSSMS

Legend:
FLAG-MARCH2 (human) = molecular target: T1, FLAG-MARCH2 (human) (UniProt Q9P0N8); assay: co-IP; tagged proteins co-expressed (HEK293T for Fig. 2B); lysis in 1% NP-40, 20 mM Tris-HCl pH 7.6, 150 mM NaCl, 2 mM EDTA; magnetic beads overnight at 4 °C, five washes; immunoblot
T1 sequence: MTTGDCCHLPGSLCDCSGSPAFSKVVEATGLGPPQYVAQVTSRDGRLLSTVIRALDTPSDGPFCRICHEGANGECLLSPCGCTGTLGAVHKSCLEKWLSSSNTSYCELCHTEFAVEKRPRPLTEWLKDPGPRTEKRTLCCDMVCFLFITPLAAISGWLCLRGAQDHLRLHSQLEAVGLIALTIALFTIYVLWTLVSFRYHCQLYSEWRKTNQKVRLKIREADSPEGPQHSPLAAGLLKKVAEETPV

ALK5-VN173 (human) = molecular target: T2, ALK5-VN173 (human) (UniProt P36897); assay: split reporter; BiFC: HeLa cells transfected with MARCH2-VC155 and ALK5-VN173, fixed after 24 h, confocal microscopy
T2 sequence: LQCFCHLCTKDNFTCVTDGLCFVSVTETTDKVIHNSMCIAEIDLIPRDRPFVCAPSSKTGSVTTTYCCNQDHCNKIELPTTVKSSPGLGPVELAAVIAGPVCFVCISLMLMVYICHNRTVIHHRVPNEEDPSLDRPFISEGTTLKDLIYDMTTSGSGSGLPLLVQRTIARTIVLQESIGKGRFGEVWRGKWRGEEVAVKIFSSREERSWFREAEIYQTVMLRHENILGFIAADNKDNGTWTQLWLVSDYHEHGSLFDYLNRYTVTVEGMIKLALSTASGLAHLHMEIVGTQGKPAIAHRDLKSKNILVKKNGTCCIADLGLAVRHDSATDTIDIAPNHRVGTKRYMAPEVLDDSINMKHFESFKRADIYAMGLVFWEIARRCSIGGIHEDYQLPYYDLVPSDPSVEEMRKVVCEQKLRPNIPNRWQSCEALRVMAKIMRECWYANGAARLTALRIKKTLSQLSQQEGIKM

HA-MARCH2 (human) = molecular target: T3, HA-MARCH2 (human) (UniProt Q9P0N8); assay: co-IP; tagged proteins co-expressed (HEK293T for Fig. 2B); lysis in 1% NP-40, 20 mM Tris-HCl pH 7.6, 150 mM NaCl, 2 mM EDTA; magnetic beads overnight at 4 °C, five washes; immunoblot
T3 sequence: T1 sequence

MYC-MARCH2 (human) = molecular target: T4, MYC-MARCH2 (human) (UniProt Q9P0N8); assay: as above
T4 sequence: T1 sequence

GST-SMAD2 = GST-SMAD2 (UniProt Q15796); assay: pull-down; in vitro binding assay: lysates of HEK293 cells expressing FLAG-ALK5 or FLAG-ALK5 7KR incubated with GST-SMAD2; immunoblot; only the target purified
[1] = molecular target: T5, HA-MARCH2 stably expressed in A549 cells (human) (UniProt Q9P0N8); assay: co-IP; as a5, but cells not treated with TGF-β
T5 sequence: T1 sequence

[2] = molecular target: T5, HA-MARCH2 stably expressed in A549 cells (human); assay: co-IP; A549 cells stably expressing HA-MARCH2, treated with TGF-β for increasing times (peak at one hour); also after pre-treatment with Dynasore (80 μM) and Pitstop 2 (30 μM); HA-MARCH2 precipitated, blot with anti-ALK5
[3] = molecular target: T5, HA-MARCH2 stably expressed in A549 cells (human); assay: co-IP; endosomes isolated through FLAG-Rab5 on anti-FLAG magnetic agarose from A549 cells stably expressing FLAG-Rab5 and HA-MARCH2, eluted with 1% Triton X-100 lysis buffer, then co-IP of HA-MARCH2; blot with anti-ALK5; with or without TGF-β
[4] = molecular target: T5, HA-MARCH2 stably expressed in A549 cells (human); assay: proximity ligation; Duolink PLA in A549 cells stably expressing HA-MARCH2 and FLAG-ALK5, TGF-β for 1 h, with or without Dynasore (80 μM) and Pitstop 2 (30 μM); also in cells expressing GFP-Rab5
[5] = molecular target: T6, endogenous ALK5 (human (endogenous in A549)), P36897; assay: proximity ligation; PLA of ALK5 with SMAD2/3 in mock- or MARCH2-depleted cells upon TGF-β treatment (Fig. S4C); conditions: remark: other sources report otherwise
T6 chain: T2 sequence

HA-ALK5 (human) = molecular target: T7, HA-ALK5 (human) (UniProt P36897); assay: co-IP; tagged proteins co-expressed (HEK293T for Fig. 2B); lysis in 1% NP-40, 20 mM Tris-HCl pH 7.6, 150 mM NaCl, 2 mM EDTA; magnetic beads overnight at 4 °C, five washes; immunoblot
T7 sequence: T2 sequence

B1: HA-ALK5 (receptor, UniProt P36897 34-503)
chain: T2 sequence
binding (FLAG-MARCH2 (human)): binds

B2: MARCH2-VC155 (enzyme, UniProt Q9P0N8 1-246)
chain: T1 sequence
binding (ALK5-VN173 (human)): binds

B3: FLAG-ALK5 (receptor, UniProt P36897 34-503)
chain: T2 sequence
binding (HA-MARCH2 (human)): binds | binding (MYC-MARCH2 (human)): binds | binding (GST-SMAD2): binds

B4: endogenous ALK5 (receptor, UniProt P36897 34-503)
chain: T2 sequence
binding [1]: no binding (condition: cells without TGF-β treatment) | binding [2]: binds | binding [3]: binds

B5: FLAG-ALK5 stably expressed in A549 cells (receptor, UniProt P36897 34-503)
chain: T2 sequence
binding [4]: binds

B6: FLAG-ALK5 7KR (receptor, UniProt P36897 34-503)
chain: T2 sequence with K180R, K309R, K310R, K358R, K416R, K456R, K457R
binding (GST-SMAD2): binds

B7: SMAD3, P84022 1-425 (protein)
chain: MSSILPFTPPIVKRLLGWKKGEQNGQEEKWCEKAVKSLVKKLKKTGQLDELEKAITTQNVNTKCITIPRSLDGRLQVSHRKGLPHVIYCRLWRWPDLHSHHELRAMELCEFAFNMKKDEVCVNPYHYQRVETPVLPPVLVPRHTEIPAEFPPLDDYSHSIPENTNFPAGIEPQSNIPETPPPGYLSEDGETSDHQMNHSMDAGSPNLSPNPMSPAHNNLDLQPVTYCEPAFWCSISYYELNQRVGETFHASQPSMTVDGFTDPSNSERFCLGLLSNVNRNAAVELTRRHIGRGVRLYYIGGEVFAECLSDSAIFVQSPNCNQRYGWHPATVCKIPPGCNLKIFNNQEFAALLAQSVNQGFEAVYQLTRMCTIRMSFVKGWGAEYRRQTVTSTPCWIELHLNGPLQWLDKVLTQMGSPSIRCSSVS
binding [5]: binds

B8: FLAG-MARCH2 (enzyme, UniProt Q9P0N8 1-246)
chain: T1 sequence
binding (HA-ALK5 (human)): binds
